PubChem BioAssay AID1053208, Peter MacCallum Cancer Centre | 2014
The whole screen tested about 17,000 reagents; shown is an unselected part. Of all reagents, 788 (4.7%) are marked active. 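Calls rest on z-score classes alone; an extra cut-off of viability at most 70% of control was not applied to them.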 Entries without a mark were called inactive. Further read-outs or replicates are left out here.

Screen: 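Synthetic lethal interactions between gene loss and doxorubicin in osteosarcoma cells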 (primary screen)
System: mouse osteosarcoma cells, early-passage culture from an engineered mouse model of fibroblastic bone tumour
Reagent: siRNA pool against mouse genes, 40 nM
Timing: about 120 h (48 h before drug, then 72 h with drug)
Treatment: doxorubicin 100 nM for 72 h, roughly 30-40% inhibitory dose
Detection: 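Luminescent ATP signal taken as viability with or without 100 nM doxorubicin for 72 h; mean of two wells set against non-targeting siRNA and turned into robust z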
Scale: viability z-score with doxorubicin: higher = more viable cells under doxorubicin; viability z-score without drug: higher = more viable cells with knock-down alone
Call rule: 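a pool counts as active when its viability z-score with doxorubicin is -2 or below and its z-score without drug lies between -2 and 2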

What is on record for Clpx?
combined z-score class: no change with or without drug; viability z-score with doxorubicin: -0.56; viability z-score without drug: -0.84

Which result is listed for Alkbh5 (alkB homolog 5, RNA demethylase)?
combined z-score class: no change with or without drug; viability z-score with doxorubicin: -1.24; viability z-score without drug: -0.51

For Rps6kc1 (ribosomal protein S6 kinase C1), what was measured?
combined z-score class: high cell count with doxorubicin only; viability z-score with doxorubicin: 3.04; viability z-score without drug: 1.18

For Slc26a6, how do the results read?
combined z-score class: high cell count with doxorubicin only; viability z-score with doxorubicin: 2.02; viability z-score without drug: 1.52

With Hoxaas2 (Hoxa cluster antisense RNA 2), what does the deposit list?
combined z-score class: no change with or without drug; viability z-score with doxorubicin: 0.67; viability z-score without drug: 0.84

What is on record for Hnrnpk (heterogeneous nuclear ribonucleoprotein K)?
combined z-score class: no change with or without drug; viability z-score with doxorubicin: -0.67; viability z-score without drug: -1.85

For Stx17 (syntaxin 17), what was measured?
combined z-score class: no change with or without drug; viability z-score with doxorubicin: 1.12; viability z-score without drug: 0.84

For Hsbp1 (heat shock factor binding protein 1), how do the results read?
combined z-score class: no change with or without drug; viability z-score with doxorubicin: 0.11; viability z-score without drug: 0.84

How did the screen score Sox6 (SRY (sex determining region Y)-box 6)?
combined z-score class: no change with or without drug; viability z-score with doxorubicin: 0.34; viability z-score without drug: -0.51

For Gcc1 (golgi coiled coil 1), what was measured?
combined z-score class: no change with or without drug; viability z-score with doxorubicin: -0.22; viability z-score without drug: 0.67

Which result is listed for Plcg2 (phospholipase C, gamma 2)?
combined z-score class: no change with or without drug; viability z-score with doxorubicin: -0.34; viability z-score without drug: -1.01

Reprinted from above for reference:
Stx17 (syntaxin 17): combined z-score class = no change with or without drug; viability z-score with doxorubicin = 1.12; viability z-score without drug = 0.84
Hsbp1 (heat shock factor binding protein 1): combined z-score class = no change with or without drug; viability z-score with doxorubicin = 0.11; viability z-score without drug = 0.84
Sox6 (SRY (sex determining region Y)-box 6): combined z-score class = no change with or without drug; viability z-score with doxorubicin = 0.34; viability z-score without drug = -0.51

The listing continues.
With Fam78a (family with sequence similarity 78, member A), what does the deposit list?
combined z-score class: no change with or without drug; viability z-score with doxorubicin: -1.46; viability z-score without drug: -1.52

With Or4f56 (olfactory receptor family 4 subfamily F member 56), how do the results read?
combined z-score class: no change with or without drug; viability z-score with doxorubicin: -1.35; viability z-score without drug: -0.84

Which result is listed for Cdcp3 (CUB domain containing protein 3)?
combined z-score class: high cell count without drug only; viability z-score with doxorubicin: 0; viability z-score without drug: 2.02

What did the screen give for Csnk1d (casein kinase 1, delta)?
combined z-score class: no change with or without drug; viability z-score with doxorubicin: -0.56; viability z-score without drug: 1.18

Which result is listed for Gipc1 (GIPC PDZ domain containing family, member 1)?
combined z-score class: no change with or without drug; viability z-score with doxorubicin: -0.56; viability z-score without drug: 0.51

What is on record for Spmip8 (sperm microtubule inner protein 8)?
combined z-score class: no change with or without drug; viability z-score with doxorubicin: -1.01; viability z-score without drug: 0.84

With Ssxb13 (SSX member B13), what was measured?
combined z-score class: no change with or without drug; viability z-score with doxorubicin: 0.22; viability z-score without drug: 0

Which result is listed for Zfp280c (zinc finger protein 280C)?
combined z-score class: no change with or without drug; viability z-score with doxorubicin: 0.11; viability z-score without drug: -0.51

How did the screen score Rassf9?
combined z-score class: no change with or without drug; viability z-score with doxorubicin: 1.57; viability z-score without drug: 1.52

For Diablo (diablo, IAP-binding mitochondrial protein), how do the results read?
combined z-score class: no change with or without drug; viability z-score with doxorubicin: -0.22; viability z-score without drug: -0.84

What did the screen give for Prss42 (serine protease 42)?
combined z-score class: no change with or without drug; viability z-score with doxorubicin: -0.56; viability z-score without drug: -1.01

How did the screen score Micu1 (mitochondrial calcium uptake 1)?
combined z-score class: no change with or without drug; viability z-score with doxorubicin: -1.24; viability z-score without drug: -0.17

What did the screen give for Fntb (farnesyltransferase, CAAX box, beta)?
combined z-score class: no change with or without drug; viability z-score with doxorubicin: -0.9; viability z-score without drug: -0.84

With Or5i1 (olfactory receptor family 5 subfamily I member 1), how do the results read?
combined z-score class: no change with or without drug; viability z-score with doxorubicin: 0.45; viability z-score without drug: -0.51

What is on record for Sp3os (trans-acting transcription factor 3, opposite strand)?
combined z-score class: no change with or without drug; viability z-score with doxorubicin: 0.9; viability z-score without drug: 1.85

How did the screen score Or13c7b (olfactory receptor family 13 subfamily C member 7B)?
combined z-score class: no change with or without drug; viability z-score with doxorubicin: -0.45; viability z-score without drug: -0.34

How did the screen score Aff4 (AF4/FMR2 family, member 4)?
combined z-score class: no change with or without drug; viability z-score with doxorubicin: -0.11; viability z-score without drug: 1.52
